Source: PMC4961739, “Regulation of post-Golgi LH3 trafficking is essential for collagen homeostasis” (Nature Communications, 2016)
No constants are given. Whether binding was seen depends on the method and setting. In cells and extracts the contact can be indirect. Some results given as binding are weak or reduced against the parent protein; the word gives no strength. Where a sequence is shown, tags or fusion partners need not be part of it.

By UniProt entry, the sequences of proteins in these tests, tags left out. Residues count along the entry.
UniProt O60568, residues 25-738: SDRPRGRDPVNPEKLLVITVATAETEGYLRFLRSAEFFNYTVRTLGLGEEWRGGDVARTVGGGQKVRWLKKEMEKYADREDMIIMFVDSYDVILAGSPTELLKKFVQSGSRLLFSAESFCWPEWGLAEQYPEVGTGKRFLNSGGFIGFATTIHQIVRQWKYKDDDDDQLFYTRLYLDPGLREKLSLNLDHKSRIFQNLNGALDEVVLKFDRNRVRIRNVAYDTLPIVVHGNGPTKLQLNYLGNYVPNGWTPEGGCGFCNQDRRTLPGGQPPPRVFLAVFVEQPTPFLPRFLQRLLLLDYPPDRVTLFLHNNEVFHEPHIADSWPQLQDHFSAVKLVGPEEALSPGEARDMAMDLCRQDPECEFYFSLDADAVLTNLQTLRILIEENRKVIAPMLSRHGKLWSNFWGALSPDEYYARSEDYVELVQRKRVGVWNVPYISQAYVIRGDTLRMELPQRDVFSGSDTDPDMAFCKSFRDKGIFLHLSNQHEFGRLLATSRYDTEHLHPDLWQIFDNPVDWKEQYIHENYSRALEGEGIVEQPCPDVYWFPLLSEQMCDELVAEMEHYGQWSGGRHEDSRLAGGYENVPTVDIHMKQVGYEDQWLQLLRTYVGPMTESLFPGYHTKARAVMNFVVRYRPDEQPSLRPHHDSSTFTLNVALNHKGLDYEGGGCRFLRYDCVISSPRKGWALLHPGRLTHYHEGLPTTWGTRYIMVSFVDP
UniProt P61026: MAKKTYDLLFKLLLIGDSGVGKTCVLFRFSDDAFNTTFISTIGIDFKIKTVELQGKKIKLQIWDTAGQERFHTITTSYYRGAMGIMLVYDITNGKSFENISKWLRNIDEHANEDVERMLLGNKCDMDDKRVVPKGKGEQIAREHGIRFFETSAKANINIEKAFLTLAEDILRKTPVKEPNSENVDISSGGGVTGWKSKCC

T1: HA-tagged VPS33B (human) (UniProt Q9H267)
T1 sequence: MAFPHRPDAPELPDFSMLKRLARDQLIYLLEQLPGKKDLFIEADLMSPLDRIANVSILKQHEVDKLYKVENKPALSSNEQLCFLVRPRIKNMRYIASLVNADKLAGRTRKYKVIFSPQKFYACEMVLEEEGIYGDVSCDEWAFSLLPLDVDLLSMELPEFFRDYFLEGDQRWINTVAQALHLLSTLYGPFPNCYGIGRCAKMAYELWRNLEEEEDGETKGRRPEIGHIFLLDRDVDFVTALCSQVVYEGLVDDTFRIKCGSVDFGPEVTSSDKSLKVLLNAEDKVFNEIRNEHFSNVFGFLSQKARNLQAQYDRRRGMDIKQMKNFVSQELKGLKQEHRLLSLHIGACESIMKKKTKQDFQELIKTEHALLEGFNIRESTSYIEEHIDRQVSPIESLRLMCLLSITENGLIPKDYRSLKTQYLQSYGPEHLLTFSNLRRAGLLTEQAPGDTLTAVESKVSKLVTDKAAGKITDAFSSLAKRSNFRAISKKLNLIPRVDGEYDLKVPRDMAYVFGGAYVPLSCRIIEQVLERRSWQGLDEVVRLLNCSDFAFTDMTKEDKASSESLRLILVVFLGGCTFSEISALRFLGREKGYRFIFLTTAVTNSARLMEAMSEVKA

T2: myc-tagged VIPAR, full-length (FL) (human) (UniProt Q9H9C1)
T2 sequence: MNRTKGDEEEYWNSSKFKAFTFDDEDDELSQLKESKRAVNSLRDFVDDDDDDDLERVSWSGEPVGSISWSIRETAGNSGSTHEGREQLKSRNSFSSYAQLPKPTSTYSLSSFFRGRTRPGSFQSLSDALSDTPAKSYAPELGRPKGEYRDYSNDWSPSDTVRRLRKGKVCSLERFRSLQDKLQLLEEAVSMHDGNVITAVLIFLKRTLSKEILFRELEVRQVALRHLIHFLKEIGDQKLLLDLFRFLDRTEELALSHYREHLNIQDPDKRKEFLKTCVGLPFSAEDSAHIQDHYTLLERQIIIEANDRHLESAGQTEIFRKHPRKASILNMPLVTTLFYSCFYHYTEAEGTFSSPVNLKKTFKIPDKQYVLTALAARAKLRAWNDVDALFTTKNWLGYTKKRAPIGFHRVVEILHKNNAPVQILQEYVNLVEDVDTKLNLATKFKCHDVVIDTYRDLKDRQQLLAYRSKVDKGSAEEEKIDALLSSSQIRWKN


What was measured:
[1] = biological target: T1, HA-tagged VPS33B (human); test: co-IP; HEK293 cells transfected 48 h; NP-40 lysis buffer (0.3% NP-40, 10 mM HEPES pH 8.5, 10 mM KCl, 5 mM MgCl2, 5 mM DTT); anti-myc or anti-HA antibody on Dynabeads Protein G, overnight at 4 °C; western blot
[2] = biological target: T2, myc-tagged VIPAR, full-length (FL) (human); test: as above

Molecule | binding [1] | binding [2]
lysyl hydroxylase 3 (LH3, also known as PLOD3), endogenous (from UniProt O60568 25-738) (enzyme) | binds | –
GFP-RAB25 (protein, UniProt P57735 1-213) MGNGTEEDYNFVFKVVLIGESGVGKTNLLSRFTRNEFSHDSRTTIGVEFSTRTVMLGTAAVKAQIWDTAGLERYRAITSAYYRGAVGALLVFDLTKHQTYAVVERWLKELYDHAEATIVVMLVGNKSDLSQAREVPTEEARMFAENNGLLFLETSALDSTNVELAFETVLKEIFAKVSKQRQNSIRTNAITLGSAQAGQEPGPGEKRACCISL | binds | –

Results, then the molecule that gave them:

binding [1] | binding [2] | Molecule
binds | – | GFP-RAB10 (from UniProt P61026 1-200)
– | binds | HA-tagged VPS33B (protein, UniProt Q9H267 1-617) MAFPHRPDAPELPDFSMLKRLARDQLIYLLEQLPGKKDLFIEADLMSPLDRIANVSILKQHEVDKLYKVENKPALSSNEQLCFLVRPRIKNMRYIASLVNADKLAGRTRKYKVIFSPQKFYACEMVLEEEGIYGDVSCDEWAFSLLPLDVDLLSMELPEFFRDYFLEGDQRWINTVAQALHLLSTLYGPFPNCYGIGRCAKMAYELWRNLEEEEDGETKGRRPEIGHIFLLDRDVDFVTALCSQVVYEGLVDDTFRIKCGSVDFGPEVTSSDKSLKVLLNAEDKVFNEIRNEHFSNVFGFLSQKARNLQAQYDRRRGMDIKQMKNFVSQELKGLKQEHRLLSLHIGACESIMKKKTKQDFQELIKTEHALLEGFNIRESTSYIEEHIDRQVSPIESLRLMCLLSITENGLIPKDYRSLKTQYLQSYGPEHLLTFSNLRRAGLLTEQAPGDTLTAVESKVSKLVTDKAAGKITDAFSSLAKRSNFRAISKKLNLIPRVDGEYDLKVPRDMAYVFGGAYVPLSCRIIEQVLERRSWQGLDEVVRLLNCSDFAFTDMTKEDKASSESLRLILVVFLGGCTFSEISALRFLGREKGYRFIFLTTAVTNSARLMEAMSEVKA
